# Data: patent US9982138B2, “Hair color compositions comprising stable violet-blue to blue imidazolium dyes” (Noxell Corporation, priority 2016, dated 2018)
# Counter-ions that a name gives are not always drawn.
# Assay: Colorstrike / color intensity on natural white hair (colorimeter, D65 illumination)
# Settings: dye in water adjusted to pH 10.8 with 28% ammonia, mixed with equal volume of 6% hydrogen peroxide solution, rinsed after thirty minutes
SMILES,L,a,b
"CCN1CCN(CC)c2cc(/N=N/c3n(CCCN)cc[n+]3CCCN)ccc21.Cl.Cl.[Br-] [Compound 1, (E)-1,3-bis(3-ammoniopropyl)-2-((1,4-diethyl-1,2,3,4-tetrahydroquinoxalin-6-yl)diazenyl)-1H-imidazol-3-ium bromide dichloride]",18.27,−0.98,−6.59
"CCN1CCN(CC)c2cc(/N=N/c3n(CCC[N+](C)(C)C)cc[n+]3CCC[N+](C)(C)C)ccc21 [Compound 2, (E)-2-((1,4-diethyl-1,2,3,4-tetrahydroquinoxalin-6-yl)diazenyl)-1,3-bis(3-(trimethyl-ammonio)propyl)-1H-imidazol-3-ium tribromide]",18.31,−0.34,−8.23
"CN1CCNc2cc(/N=N/c3n(CCCN)cc[n+]3CCCN)ccc21.Cl.Cl.[Br-] [Compound 3, (E)-1,3-bis(3-ammoniopropyl)-2-((1-methyl-1,2,3,4-tetrahydroquinoxalin-6-yl)diazenyl)-1H-imidazol-3-ium bromide dichloride]",18.24,1.06,−7.83
"CCCCCN1CCN(CCCCC)c2cc(/N=N/c3n(CCCCN)cc[n+]3CCCCN)ccc21.Cl.Cl.[Br-] [Compound 4, (E)-1,3-bis(4-ammoniobutyl)-2-((1,4-dipentyl-1,2,3,4-tetrahydroquinoxalin-6-yl)diazenyl)-1H-imidazol-3-ium bromide dichloride]",20.55,−2.22,−7.03
"CCCCCN1CCNc2cc(/N=N/c3n(CCCN)cc[n+]3CCCN)ccc21.Cl.Cl.[Br-] [Compound 5, (E)-1,3-bis(3-ammoniopropyl)-2-((1-pentyl-1,2,3,4-tetrahydroquinoxalin-6-yl)diazenyl)-1H-imidazol-3-ium bromide dichloride]",19.40,0.36,−8.79
CCN1CCN(CC)c2cc(/N=N/c3n(CCC[N+](C)(C)C)cc[n+]3CCC[N+](C)(C)C)ccc21 [Compound 6],20.67,−1.98,−7.99
C=CCN1CCN(CC=C)c2cc(/N=N/c3n(CCCCN)cc[n+]3CCCCN)ccc21 [Compound 7],18.31,−0.34,−8.23
"Cn1cc[n+](C)c1/N=N/c1cc2c3c(c1)OCCN3CCO2 [Compound 8, (E)-1,3-dimethyl-2-((2,3,4,5-tetrahydro-1,6-dioxa-3a-azaphenalen-8-yl)diazenyl)-1H-imidazol-3-ium methyl sulfate]",19.85,30.32,−14.59
CCN1CCN(CC)c2cc(/N=N/c3n(CCCCN)cc[n+]3CCCCN)ccc21 [Compound 9],25.66,−3.25,−10.69
